# Results as given in article PMC5875879.
# The chains behind the UniProt entries cited, without tags or fusion partners.
# UniProt Q9Y580: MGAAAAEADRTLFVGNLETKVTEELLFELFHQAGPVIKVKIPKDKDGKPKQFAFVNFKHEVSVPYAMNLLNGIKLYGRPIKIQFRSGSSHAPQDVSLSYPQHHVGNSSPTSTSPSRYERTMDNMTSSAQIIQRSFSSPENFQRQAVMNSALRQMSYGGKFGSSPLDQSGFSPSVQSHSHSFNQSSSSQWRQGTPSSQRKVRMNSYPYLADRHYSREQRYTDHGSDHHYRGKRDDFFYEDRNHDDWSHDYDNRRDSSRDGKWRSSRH
# UniProt O60293: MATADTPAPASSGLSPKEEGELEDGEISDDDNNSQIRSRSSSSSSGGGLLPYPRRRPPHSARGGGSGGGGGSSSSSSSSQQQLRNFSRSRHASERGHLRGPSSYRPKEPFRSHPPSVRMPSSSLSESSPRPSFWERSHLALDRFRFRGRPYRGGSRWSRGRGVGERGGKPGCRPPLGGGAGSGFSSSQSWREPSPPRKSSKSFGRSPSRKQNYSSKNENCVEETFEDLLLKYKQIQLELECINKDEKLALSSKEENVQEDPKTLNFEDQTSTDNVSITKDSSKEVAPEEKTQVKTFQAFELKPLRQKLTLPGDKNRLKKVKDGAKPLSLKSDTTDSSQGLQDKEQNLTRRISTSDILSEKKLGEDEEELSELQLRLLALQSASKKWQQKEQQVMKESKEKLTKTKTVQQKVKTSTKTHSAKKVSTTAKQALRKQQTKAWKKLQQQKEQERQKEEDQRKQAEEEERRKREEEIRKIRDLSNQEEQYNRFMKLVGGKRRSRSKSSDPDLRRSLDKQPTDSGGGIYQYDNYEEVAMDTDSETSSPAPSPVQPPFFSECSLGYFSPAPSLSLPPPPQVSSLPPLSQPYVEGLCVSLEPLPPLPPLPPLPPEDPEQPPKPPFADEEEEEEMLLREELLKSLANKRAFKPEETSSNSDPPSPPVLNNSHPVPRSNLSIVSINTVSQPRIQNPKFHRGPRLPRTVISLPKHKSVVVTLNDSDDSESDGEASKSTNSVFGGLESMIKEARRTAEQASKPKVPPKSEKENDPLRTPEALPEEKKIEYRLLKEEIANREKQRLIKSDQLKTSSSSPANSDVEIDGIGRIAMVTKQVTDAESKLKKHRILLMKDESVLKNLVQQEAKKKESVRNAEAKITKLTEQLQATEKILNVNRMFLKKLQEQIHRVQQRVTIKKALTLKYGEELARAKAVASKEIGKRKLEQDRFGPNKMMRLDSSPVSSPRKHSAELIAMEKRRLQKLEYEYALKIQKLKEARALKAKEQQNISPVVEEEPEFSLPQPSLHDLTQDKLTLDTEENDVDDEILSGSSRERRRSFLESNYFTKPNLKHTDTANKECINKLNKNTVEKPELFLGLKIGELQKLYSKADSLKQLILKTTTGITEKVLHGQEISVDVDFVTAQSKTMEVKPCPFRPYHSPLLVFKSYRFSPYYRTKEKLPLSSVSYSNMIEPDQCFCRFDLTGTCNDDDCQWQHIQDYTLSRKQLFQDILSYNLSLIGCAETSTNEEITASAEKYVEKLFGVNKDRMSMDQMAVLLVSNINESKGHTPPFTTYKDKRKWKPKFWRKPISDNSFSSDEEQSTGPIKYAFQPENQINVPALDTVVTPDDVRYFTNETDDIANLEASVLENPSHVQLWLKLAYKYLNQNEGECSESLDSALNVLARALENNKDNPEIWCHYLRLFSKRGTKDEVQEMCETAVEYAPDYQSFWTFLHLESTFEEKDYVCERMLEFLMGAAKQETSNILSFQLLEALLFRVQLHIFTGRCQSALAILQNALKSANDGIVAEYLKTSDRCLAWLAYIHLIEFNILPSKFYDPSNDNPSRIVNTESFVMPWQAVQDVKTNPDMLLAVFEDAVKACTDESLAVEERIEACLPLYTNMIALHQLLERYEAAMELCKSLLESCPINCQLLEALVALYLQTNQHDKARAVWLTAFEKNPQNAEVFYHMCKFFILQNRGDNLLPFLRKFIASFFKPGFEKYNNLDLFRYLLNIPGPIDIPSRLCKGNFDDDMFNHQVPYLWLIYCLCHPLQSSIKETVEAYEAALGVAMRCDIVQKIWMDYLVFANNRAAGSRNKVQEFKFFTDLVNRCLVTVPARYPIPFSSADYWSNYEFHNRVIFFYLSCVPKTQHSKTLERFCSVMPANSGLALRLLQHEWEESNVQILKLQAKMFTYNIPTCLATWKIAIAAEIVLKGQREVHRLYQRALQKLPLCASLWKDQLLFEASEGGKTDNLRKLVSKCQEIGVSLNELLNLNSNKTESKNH
# UniProt Q6NZY4: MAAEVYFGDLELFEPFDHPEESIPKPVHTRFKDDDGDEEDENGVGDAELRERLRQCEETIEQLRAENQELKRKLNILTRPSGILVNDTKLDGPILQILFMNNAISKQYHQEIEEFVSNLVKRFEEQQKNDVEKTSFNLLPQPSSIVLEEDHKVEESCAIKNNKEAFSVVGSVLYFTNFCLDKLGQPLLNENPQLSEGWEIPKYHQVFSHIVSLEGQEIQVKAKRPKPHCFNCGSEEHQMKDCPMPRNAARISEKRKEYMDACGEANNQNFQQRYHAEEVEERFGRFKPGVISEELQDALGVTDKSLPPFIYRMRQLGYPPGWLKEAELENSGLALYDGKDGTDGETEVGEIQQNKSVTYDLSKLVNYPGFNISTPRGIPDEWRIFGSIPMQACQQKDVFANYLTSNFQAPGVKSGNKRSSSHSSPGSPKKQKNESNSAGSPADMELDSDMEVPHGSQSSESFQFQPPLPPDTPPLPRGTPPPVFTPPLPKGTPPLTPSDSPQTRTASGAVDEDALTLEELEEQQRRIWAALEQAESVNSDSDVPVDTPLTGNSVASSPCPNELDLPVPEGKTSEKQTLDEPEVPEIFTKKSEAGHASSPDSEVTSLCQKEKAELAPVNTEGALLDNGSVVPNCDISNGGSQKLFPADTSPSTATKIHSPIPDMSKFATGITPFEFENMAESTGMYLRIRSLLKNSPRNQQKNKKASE
# No constants are given. Whether binding was seen depends on the method and setting. In cells and extracts the contact can be indirect. A yes stands for co-enrichment or nearness to the bait. Other partners may have been found. For some assays here: A no says only that the protein was not detected with the bait. For some assays here: Tags and fused reporters may be left off the sequences shown.
# B1: C1D, Q13901 1-141 (protein)
# chain: MAGEEINEDYPVEIHEYLSAFENSIGAVDEMLKTMMSVSRNELLQKLDPLEQAKVDLVSAYTLNSMFWVYLATQGVNPKEHPVKQELERIRVYMNRVKEITDKKKAGKLDRGAASRFVKNALWEPKSKNASKVANKGKSKS
# B2: MPP6 (protein, UniProt Q99547 1-160)
# chain: MAAERKTRLSKNLLRMKFMQRGLDSETKKQLEEEEKKIISEEHWYLDLPELKEKESFIIEEQSFLLCEDLLYGRMSFRGFNPEVEKLMLQMNAKHKAEEVEDETVELDVSDEEMARRYETLVGTIGKKFARKRDHANYEEDENGDITPIKAKKMFLKPQD
# B3: RRP6 (endogenous) (protein, UniProt Q01780 1-885)
# chain: MAPPSTREPRVLSATSATKSDGEMVLPGFPDADSFVKFALGSVVAVTKASGGLPQFGDEYDFYRSFPGFQAFCETQGDRLLQCMSRVMQYHGCRSNIKDRSKVTELEDKFDLLVDANDVILERVGILLDEASGVNKNQQPVLPAGLQVPKTVVSSWNRKAAEYGKKAKSETFRLLHAKNIIRPQLKFREKIDNSNTPFLPKIFIKPNAQKPLPQALSKERRERPQDRPEDLDVPPALADFIHQQRTQQVEQDMFAHPYQYELNHFTPADAVLQKPQPQLYRPIEETPCHFISSLDELVELNEKLLNCQEFAVDLEHHSYRSFLGLTCLMQISTRTEDFIIDTLELRSDMYILNESLTDPAIVKVFHGADSDIEWLQKDFGLYVVNMFDTHQAARLLNLGRHSLDHLLKLYCNVDSNKQYQLADWRIRPLPEEMLSYARDDTHYLLYIYDKMRLEMWERGNGQPVQLQVVWQRSRDICLKKFIKPIFTDESYLELYRKQKKHLNTQQLTAFQLLFAWRDKTARREDESYGYVLPNHMMLKIAEELPKEPQGIIACCNPVPPLVRQQINEMHLLIQQAREMPLLKSEVAAGVKKSGPLPSAERLENVLFGPHDCSHAPPDGYPIIPTSGSVPVQKQASLFPDEKEDNLLGTTCLIATAVITLFNEPSAEDSKKGPLTVAQKKAQNIMESFENPFRMFLPSLGHRAPVSQAAKFDPSTKIYEISNRWKLAQVQVQKDSKEAVKKKAAEQTAAREQAKEACKAAAEQAISVRQQVVLENAAKKRERATSDPRTTEQKQEKKRLKISKKPKDPEPPEKEFTPYDYSQSDFKAFAGNSKSKVSSQFDPNKQTPSGKKCIAAKKIKQSVGNKSMSFPTGKSDRGFRYNWPQR
# B4: C1D (protein, UniProt Q13901 1-141)
# chain: MAGEEINEDYPVEIHEYLSAFENSIGAVDEMLKTMMSVSRNELLQKLDPLEQAKVDLVSAYTLNSMFWVYLATQGVNPKEHPVKQELERIRVYMNRVKEITDKKKAGKLDRGAASRFVKNALWEPKSKNASKVANKGKSKS
# B5: DIS3, Q9Y2L1 1-958 (protein)
# chain: MLKSKTFLKKTRAGGVMKIVREHYLRDDIGCGAPGCAACGGAHEGPALEPQPQDPASSVCPQPHYLLPDTNVLLHQIDVLEDPAIRNVIVLQTVLQEVRNRSAPVYKRIRDVTNNQEKHFYTFTNEHHRETYVEQEQGENANDRNDRAIRVAAKWYNEHLKKMSADNQLQVIFITNDRRNKEKAIEEGIPAFTCEEYVKSLTANPELIDRLACLSEEGNEIESGKIIFSEHLPLSKLQQGIKSGTYLQGTFRASRENYLEATVWIHGDNEENKEIILQGLKHLNRAVHEDIVAVELLPKSQWVAPSSVVLHDEGQNEEDVEKEEETERMLKTAVSEKMLKPTGRVVGIIKRNWRPYCGMLSKSDIKESRRHLFTPADKRIPRIRIETRQASTLEGRRIIVAIDGWPRNSRYPNGHFVRNLGDVGEKETETEVLLLEHDVPHQPFSQAVLSFLPKMPWSITEKDMKNREDLRHLCICSVDPPGCTDIDDALHCRELENGNLEVGVHIADVSHFIRPGNALDQESARRGTTVYLCEKRIDMVPELLSSNLCSLKCDVDRLAFSCIWEMNHNAEILKTKFTKSVINSKASLTYAEAQLRIDSANMNDDITTSLRGLNKLAKILKKRRIEKGALTLSSPEVRFHMDSETHDPIDLQTKELRETNSMVEEFMLLANISVAKKIHEEFSEHALLRKHPAPPPSNYEILVKAARSRNLEIKTDTAKSLAESLDQAESPTFPYLNTLLRILATRCMMQAVYFCSGMDNDFHHYGLASPIYTHFTSPIRRYADVIVHRLLAVAIGADCTYPELTDKHKLADICKNLNFRHKMAQYAQRASVAFHTQLFFKSKGIVSEEAYILFVRKNAIVVLIPKYGLEGTVFFEEKDKPNPQLIYDDEIPSLKIEDTVFHVFDKVKVKIMLDSSNLQHQKIRMSLVEPQIPGISIPTDTSNMDLNGPKKKKMKLGK
# B6: DIS3 (protein, UniProt Q9Y2L1 1-958)
# chain: MLKSKTFLKKTRAGGVMKIVREHYLRDDIGCGAPGCAACGGAHEGPALEPQPQDPASSVCPQPHYLLPDTNVLLHQIDVLEDPAIRNVIVLQTVLQEVRNRSAPVYKRIRDVTNNQEKHFYTFTNEHHRETYVEQEQGENANDRNDRAIRVAAKWYNEHLKKMSADNQLQVIFITNDRRNKEKAIEEGIPAFTCEEYVKSLTANPELIDRLACLSEEGNEIESGKIIFSEHLPLSKLQQGIKSGTYLQGTFRASRENYLEATVWIHGDNEENKEIILQGLKHLNRAVHEDIVAVELLPKSQWVAPSSVVLHDEGQNEEDVEKEEETERMLKTAVSEKMLKPTGRVVGIIKRNWRPYCGMLSKSDIKESRRHLFTPADKRIPRIRIETRQASTLEGRRIIVAIDGWPRNSRYPNGHFVRNLGDVGEKETETEVLLLEHDVPHQPFSQAVLSFLPKMPWSITEKDMKNREDLRHLCICSVDPPGCTDIDDALHCRELENGNLEVGVHIADVSHFIRPGNALDQESARRGTTVYLCEKRIDMVPELLSSNLCSLKCDVDRLAFSCIWEMNHNAEILKTKFTKSVINSKASLTYAEAQLRIDSANMNDDITTSLRGLNKLAKILKKRRIEKGALTLSSPEVRFHMDSETHDPIDLQTKELRETNSMVEEFMLLANISVAKKIHEEFSEHALLRKHPAPPPSNYEILVKAARSRNLEIKTDTAKSLAESLDQAESPTFPYLNTLLRILATRCMMQAVYFCSGMDNDFHHYGLASPIYTHFTSPIRRYADVIVHRLLAVAIGADCTYPELTDKHKLADICKNLNFRHKMAQYAQRASVAFHTQLFFKSKGIVSEEAYILFVRKNAIVVLIPKYGLEGTVFFEEKDKPNPQLIYDDEIPSLKIEDTVFHVFDKVKVKIMLDSSNLQHQKIRMSLVEPQIPGISIPTDTSNMDLNGPKKKKMKLGK
# Key:
# Experiment in all cases: affinity purification with mass spectrometry
# Flag-HA-RRP6 (human) = target: T1, Flag-HA-RRP6 (human) (UniProt Q01780)
# T1 sequence: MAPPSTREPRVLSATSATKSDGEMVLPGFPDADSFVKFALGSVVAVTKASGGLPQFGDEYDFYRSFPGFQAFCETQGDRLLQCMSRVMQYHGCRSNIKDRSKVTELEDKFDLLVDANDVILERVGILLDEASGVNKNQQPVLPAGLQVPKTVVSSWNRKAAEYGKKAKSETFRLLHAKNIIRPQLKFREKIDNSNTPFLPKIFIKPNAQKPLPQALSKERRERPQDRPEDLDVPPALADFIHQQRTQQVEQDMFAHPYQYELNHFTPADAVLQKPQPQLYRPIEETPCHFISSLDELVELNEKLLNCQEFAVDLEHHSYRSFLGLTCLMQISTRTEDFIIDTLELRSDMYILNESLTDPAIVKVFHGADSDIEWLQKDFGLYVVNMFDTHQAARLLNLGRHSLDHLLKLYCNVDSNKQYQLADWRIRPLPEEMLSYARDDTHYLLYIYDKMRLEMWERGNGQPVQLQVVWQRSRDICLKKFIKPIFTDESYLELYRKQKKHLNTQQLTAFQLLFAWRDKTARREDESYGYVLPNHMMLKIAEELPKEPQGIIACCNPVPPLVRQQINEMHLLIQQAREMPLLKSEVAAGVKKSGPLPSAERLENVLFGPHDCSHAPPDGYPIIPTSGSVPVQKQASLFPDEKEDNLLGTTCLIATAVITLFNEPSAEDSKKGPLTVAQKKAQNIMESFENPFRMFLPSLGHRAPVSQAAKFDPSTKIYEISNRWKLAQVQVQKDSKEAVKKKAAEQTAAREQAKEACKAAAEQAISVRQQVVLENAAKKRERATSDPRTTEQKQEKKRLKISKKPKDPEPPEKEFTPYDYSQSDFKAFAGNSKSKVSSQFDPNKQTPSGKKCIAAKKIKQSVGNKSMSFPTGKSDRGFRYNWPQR
# Flag-HA-MTR4 = Flag-HA-MTR4 (UniProt P42285)
# Flag-HA-MTR4, P42285 = target: T2, Flag-HA-MTR4, P42285; conditions: remark: other sources report otherwise
# T2 chain: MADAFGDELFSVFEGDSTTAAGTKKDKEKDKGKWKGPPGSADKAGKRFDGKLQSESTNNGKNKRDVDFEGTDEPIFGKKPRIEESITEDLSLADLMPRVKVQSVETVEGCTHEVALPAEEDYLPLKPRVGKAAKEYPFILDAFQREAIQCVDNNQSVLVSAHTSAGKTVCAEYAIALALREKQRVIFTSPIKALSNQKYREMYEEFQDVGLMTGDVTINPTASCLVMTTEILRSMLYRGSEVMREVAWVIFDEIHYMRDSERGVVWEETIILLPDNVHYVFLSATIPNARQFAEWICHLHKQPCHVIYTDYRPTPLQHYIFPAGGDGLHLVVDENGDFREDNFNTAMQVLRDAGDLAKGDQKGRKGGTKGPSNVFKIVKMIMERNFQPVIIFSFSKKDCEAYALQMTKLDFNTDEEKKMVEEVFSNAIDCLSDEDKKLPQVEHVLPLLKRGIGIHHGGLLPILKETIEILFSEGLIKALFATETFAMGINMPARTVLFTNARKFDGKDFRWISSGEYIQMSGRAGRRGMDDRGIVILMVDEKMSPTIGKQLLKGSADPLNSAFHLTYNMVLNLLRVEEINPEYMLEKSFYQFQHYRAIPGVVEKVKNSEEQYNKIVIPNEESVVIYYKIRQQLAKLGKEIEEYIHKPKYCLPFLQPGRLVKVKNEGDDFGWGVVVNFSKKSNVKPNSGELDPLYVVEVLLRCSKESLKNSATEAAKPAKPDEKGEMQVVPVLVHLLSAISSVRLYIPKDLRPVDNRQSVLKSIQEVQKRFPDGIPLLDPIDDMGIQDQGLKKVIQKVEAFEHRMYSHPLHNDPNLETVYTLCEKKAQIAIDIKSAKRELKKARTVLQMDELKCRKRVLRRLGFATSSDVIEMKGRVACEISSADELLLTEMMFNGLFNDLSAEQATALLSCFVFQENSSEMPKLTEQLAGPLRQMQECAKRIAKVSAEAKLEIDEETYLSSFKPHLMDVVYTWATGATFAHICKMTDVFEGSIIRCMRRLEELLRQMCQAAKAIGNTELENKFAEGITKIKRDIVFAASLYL
# [1] = target: T3, Flag-HA-RRP6 (human), Q01780; conditions: remark: other sources report otherwise
# T3 chain: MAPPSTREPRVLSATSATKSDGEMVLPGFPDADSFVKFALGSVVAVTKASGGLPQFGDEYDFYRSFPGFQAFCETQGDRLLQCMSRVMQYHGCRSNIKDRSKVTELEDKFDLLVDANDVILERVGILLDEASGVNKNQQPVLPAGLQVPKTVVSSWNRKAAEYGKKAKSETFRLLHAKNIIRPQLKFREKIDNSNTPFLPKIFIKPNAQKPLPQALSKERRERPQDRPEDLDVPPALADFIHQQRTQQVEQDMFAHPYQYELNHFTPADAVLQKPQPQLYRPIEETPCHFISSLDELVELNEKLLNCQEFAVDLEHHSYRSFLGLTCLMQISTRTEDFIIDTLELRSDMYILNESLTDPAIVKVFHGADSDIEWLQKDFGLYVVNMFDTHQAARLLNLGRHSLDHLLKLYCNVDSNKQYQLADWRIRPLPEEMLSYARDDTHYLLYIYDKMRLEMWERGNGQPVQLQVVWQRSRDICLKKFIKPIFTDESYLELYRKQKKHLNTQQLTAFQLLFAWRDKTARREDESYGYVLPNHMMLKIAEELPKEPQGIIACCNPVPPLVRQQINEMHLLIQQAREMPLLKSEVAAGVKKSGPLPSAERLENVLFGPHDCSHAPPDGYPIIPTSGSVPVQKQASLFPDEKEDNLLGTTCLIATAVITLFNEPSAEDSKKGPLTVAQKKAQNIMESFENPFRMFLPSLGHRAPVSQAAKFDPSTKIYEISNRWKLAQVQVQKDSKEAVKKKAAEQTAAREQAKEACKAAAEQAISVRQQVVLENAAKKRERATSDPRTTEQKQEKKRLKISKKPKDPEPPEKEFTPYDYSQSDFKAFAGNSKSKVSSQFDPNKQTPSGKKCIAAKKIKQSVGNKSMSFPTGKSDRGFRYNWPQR
Molecule,binding (Flag-HA-RRP6 (human)),binding (Flag-HA-MTR4),other results
RBM7 (from UniProt Q9Y580 1-266),binds,,
ZFC3H1 (from UniProt O60293 1-1989),,binds,
ZCCHC8 (from UniProt Q6NZY4 1-707),binds,binds,
B1,,,"binding (Flag-HA-MTR4, P42285): binds"
B2,binds,binds,
B3,,binds,
B4,binds,,
B5,,,binding [1]: no binding
B6,,no binding,
